For one substance, binding results are on record in doi:10.1101/2021.06.20.449050.

Sequences of proteins named here, by UniProt entry; tags and fusion partners are left off.
UniProt Q9LMJ4: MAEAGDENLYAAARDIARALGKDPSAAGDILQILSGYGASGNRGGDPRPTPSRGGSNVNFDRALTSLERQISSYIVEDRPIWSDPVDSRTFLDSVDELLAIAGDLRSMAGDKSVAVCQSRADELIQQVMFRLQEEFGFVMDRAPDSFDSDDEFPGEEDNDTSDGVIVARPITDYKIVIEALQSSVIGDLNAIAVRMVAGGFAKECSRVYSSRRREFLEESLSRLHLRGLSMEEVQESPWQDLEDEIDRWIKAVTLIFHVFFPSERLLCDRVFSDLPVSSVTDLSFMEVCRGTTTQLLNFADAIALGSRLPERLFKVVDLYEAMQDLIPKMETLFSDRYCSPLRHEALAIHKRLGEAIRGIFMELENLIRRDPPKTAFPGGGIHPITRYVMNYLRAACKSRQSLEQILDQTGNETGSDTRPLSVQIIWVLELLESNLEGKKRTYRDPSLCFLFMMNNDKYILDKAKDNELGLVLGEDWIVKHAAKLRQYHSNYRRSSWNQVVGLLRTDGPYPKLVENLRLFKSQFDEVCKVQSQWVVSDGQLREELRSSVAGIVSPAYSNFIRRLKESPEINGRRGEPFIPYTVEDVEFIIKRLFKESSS
UniProt Q9LW76: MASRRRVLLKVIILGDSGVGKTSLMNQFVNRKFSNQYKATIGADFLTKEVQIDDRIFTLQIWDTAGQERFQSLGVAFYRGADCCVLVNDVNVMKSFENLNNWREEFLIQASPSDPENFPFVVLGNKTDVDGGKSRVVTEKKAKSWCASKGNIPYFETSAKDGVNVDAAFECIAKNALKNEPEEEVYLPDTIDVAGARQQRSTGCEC

No constants are given. Whether binding was seen depends on the method and setting. In cells and extracts the contact can be indirect. Here binding means that the protein was enriched with, or labelled near, the bait; the list need not be complete.

The target in the assay is EXO70B2-GFP (Arabidopsis thaliana) (UniProt Q9LMJ4). As to the kind of experiment: affinity purification with mass spectrometry.

For the substance RabG3C (from UniProt Q9LW76 1-206), the binding entry is “binds”.
